Paper PMC5352113
No constants are given. Whether binding was seen depends on the method and setting. Binding seen in cells or lysates may run through a third protein. These calls come from enrichment with a bait or labelling near it, and not all partners need be listed.

Amino acid sequences for entries named in this document (tags omitted). Residues count along the entry.
UniProt P30530, residues 26-894: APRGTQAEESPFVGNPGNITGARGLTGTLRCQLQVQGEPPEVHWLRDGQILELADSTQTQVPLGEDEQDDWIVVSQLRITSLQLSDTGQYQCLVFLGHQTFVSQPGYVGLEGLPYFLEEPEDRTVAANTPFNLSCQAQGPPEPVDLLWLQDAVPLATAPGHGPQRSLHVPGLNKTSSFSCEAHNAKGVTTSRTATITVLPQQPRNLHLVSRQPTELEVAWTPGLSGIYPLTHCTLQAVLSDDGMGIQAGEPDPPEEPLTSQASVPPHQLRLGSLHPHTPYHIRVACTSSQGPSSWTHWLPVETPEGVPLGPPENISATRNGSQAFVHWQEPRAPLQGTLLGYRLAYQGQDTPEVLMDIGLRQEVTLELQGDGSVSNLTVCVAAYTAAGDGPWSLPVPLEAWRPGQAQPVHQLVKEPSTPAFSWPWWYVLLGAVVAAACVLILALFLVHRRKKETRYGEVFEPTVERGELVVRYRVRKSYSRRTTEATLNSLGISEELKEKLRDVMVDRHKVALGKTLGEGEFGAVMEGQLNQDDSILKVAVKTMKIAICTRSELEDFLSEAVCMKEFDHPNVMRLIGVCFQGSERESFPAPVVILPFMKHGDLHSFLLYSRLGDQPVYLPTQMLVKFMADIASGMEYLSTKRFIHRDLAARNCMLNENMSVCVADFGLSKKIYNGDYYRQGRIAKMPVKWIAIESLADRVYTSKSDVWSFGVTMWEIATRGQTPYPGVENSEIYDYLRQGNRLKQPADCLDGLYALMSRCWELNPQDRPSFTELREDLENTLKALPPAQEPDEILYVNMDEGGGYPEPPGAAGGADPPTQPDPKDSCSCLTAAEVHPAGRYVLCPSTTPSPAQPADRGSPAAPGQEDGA
UniProt P42224: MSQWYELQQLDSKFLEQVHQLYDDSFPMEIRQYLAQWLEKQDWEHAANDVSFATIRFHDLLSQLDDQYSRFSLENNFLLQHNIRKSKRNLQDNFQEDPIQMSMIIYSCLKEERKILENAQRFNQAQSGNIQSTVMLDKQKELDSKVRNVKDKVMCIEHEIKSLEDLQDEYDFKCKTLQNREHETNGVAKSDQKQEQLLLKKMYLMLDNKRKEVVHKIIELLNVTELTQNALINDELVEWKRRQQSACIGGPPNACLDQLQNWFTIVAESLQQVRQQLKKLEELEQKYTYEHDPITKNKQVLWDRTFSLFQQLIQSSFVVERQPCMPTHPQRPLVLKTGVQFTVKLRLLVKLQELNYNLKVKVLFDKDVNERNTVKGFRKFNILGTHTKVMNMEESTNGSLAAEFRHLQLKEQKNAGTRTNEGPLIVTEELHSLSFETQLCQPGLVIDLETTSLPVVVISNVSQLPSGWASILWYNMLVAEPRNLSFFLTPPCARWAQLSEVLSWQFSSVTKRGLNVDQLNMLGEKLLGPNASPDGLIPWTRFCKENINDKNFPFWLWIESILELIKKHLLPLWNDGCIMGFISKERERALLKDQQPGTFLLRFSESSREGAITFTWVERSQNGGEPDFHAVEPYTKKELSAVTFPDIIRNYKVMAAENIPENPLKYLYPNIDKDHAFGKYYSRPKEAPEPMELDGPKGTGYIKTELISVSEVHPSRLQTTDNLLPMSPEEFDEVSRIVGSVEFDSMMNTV
UniProt P29317, residues 24-976: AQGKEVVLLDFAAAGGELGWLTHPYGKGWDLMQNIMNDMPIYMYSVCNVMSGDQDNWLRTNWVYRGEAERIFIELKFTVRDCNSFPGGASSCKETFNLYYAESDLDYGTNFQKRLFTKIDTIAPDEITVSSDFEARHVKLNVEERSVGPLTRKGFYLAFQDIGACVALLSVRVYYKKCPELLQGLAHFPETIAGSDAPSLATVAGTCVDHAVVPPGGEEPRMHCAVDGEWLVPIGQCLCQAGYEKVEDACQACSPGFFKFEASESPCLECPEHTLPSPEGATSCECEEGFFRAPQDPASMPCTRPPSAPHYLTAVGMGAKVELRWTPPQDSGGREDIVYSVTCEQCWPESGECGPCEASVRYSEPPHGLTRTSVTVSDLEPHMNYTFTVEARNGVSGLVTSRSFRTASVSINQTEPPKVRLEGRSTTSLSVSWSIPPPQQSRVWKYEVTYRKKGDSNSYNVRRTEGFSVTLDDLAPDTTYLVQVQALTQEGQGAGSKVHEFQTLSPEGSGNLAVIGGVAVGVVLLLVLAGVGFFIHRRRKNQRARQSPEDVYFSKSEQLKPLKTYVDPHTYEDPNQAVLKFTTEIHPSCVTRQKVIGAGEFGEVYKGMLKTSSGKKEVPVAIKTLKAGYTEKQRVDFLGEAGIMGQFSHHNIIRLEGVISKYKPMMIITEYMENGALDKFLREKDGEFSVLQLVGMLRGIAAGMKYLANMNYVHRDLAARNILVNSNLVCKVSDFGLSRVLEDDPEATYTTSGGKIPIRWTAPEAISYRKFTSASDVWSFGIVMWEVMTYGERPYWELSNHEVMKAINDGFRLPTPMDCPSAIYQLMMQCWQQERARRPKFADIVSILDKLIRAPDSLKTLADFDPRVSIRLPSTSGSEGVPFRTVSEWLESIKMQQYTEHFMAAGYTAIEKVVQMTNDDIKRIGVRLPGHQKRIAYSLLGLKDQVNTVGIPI
UniProt P40763: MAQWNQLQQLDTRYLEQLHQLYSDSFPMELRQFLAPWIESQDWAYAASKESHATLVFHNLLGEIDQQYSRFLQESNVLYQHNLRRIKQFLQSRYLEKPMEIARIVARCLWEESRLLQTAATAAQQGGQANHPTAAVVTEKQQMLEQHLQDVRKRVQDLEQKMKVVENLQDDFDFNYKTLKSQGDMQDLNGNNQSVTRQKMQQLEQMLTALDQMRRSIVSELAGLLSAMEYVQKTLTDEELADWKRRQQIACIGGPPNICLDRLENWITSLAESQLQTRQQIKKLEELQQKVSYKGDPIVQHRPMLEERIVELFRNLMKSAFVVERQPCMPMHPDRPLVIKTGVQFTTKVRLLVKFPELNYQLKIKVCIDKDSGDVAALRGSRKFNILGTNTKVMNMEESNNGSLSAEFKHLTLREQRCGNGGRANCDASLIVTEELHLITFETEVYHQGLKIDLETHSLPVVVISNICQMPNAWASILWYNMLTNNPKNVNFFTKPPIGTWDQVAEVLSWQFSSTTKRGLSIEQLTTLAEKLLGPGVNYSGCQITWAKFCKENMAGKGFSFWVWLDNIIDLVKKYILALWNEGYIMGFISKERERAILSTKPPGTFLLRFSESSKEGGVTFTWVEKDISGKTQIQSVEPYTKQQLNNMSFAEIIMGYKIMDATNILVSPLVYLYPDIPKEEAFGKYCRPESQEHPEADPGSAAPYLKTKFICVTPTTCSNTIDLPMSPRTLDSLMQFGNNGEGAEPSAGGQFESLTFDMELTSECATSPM

Molecular target: T1, vascular endothelial (VE)-cadherin (human (endogenous in BLM, A375, MDA-MB-468, SKBR3)) (UniProt P33151)
T1 sequence: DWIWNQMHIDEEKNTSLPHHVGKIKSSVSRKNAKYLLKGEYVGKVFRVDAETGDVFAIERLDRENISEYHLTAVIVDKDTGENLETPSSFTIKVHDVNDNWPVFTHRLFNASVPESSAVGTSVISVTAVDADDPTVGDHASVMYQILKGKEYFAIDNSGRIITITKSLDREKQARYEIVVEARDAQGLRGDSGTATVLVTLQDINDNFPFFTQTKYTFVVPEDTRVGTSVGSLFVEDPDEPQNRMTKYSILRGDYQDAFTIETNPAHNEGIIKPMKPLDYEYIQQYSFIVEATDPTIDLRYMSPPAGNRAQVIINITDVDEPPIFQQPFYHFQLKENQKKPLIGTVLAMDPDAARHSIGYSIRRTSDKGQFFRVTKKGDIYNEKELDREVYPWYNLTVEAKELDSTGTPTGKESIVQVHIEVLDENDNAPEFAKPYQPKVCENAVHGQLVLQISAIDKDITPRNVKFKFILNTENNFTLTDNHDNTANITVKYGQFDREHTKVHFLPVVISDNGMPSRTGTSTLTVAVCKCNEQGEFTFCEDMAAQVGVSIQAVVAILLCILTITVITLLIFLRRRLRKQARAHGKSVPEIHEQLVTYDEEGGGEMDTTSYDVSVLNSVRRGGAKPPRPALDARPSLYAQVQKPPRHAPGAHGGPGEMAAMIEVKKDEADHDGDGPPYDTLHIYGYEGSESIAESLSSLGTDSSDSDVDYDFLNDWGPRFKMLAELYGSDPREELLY
Assay: affinity purification with mass spectrometry; 10 mg of BLM or MDA-MB-468 cell lysate immunoprecipitated with anti-VE-cadherin or control antibodies; SDS-PAGE, three slices, trypsin, nanoLC-MS/MS; contaminants filtered with CRAPome

| binding | Substance |
| --- | --- |
| binds | JNK (human (endogenous in BLM, MDA-MB-468)) (enzyme) |
| binds | Ras |
| binds | AXL (from UniProt P30530 26-894) (receptor) |
| binds | STAT1 (from UniProt P42224 1-750) |
| binds | EPHA2 (from UniProt P29317 24-976) (receptor) |
| binds | STAT3 (from UniProt P40763 1-770) |
| binds | AKT (human (endogenous in BLM, MDA-MB-468)) (enzyme) |
